Data source: PubChem BioAssay AID1259280 (Sanger Institute, 2017)
Screen: 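Kinase knock-downs that kill colorectal cancer cells or add to anchor drugs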 (primary screen). System: human SNU407 colorectal cancer cells. Knock-down reagent: siRNA pool against human genes. Conditions: anchor drugs BYL719 at 1 µM, cetuximab at 5 µg/ml or trametinib at 10 nM, or DMSO vehicle alone; exposure time not given. Measured: 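Viability relative to non-targeting control siRNA, expressed as robust z-score, plus a synergy score for each of the three anchor drugs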. Scale: viability z-score, no drug and viability vs control, no drug: higher = more cells survive the knock-down; synergy with trametinib and synergy with BYL719 and synergy with cetuximab: higher = stronger synergy of knock-down with drug. Active means: 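Essential calls require a no-drug robust viability z-score under -3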. Calls: active = essential (knock-down alone kills cells); inactive = no change without drug.
In all, the deposit lists 794 reagents; shown is a part drawn at random. 12 of them (1.5%) count as active. 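Calls cover knock-down without drug only; synergy scores stand apart, values above 0.15 being treated as synergy.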 No viability above 1 is reported: the scale is capped. The record does not give: the amount of reagent, the time to read-out.

Gene | viability z-score, no drug | viability vs control, no drug (fraction of control) | synergy with trametinib | synergy with BYL719 | synergy with cetuximab | Call
DTYMK | 0.187 | 0.945 | -0.028 | -0.0063 | -0.138 | inactive
SF3B1 | -4.72 | 0.57 | -0.0433 | -0.00997 | -0.0755 | active
RIPK2 | 0.901 | 1 | 0.0745 | 0.0285 | 0.158 | inactive
STK32C | 0.484 | 0.968 | -0.00831 | -0.0545 | 0.00323 | inactive
KDR | 0.89 | 0.999 | 0.0361 | 0.0656 | 0.0902 | inactive
DUSP21 | -0.304 | 0.908 | -0.0947 | 0.0245 | -0.101 | inactive
PIK3CG | -0.455 | 0.896 | -0.0264 | 0.107 | 0.0221 | inactive
CSNK1G3 | 0.901 | 1 | -0.0217 | -0.0555 | 0.0456 | inactive
PKN3 | 0.0761 | 0.937 | -0.0299 | 0.103 | -0.0764 | inactive
ROCK1 | 0.901 | 1 | -0.167 | -0.0578 | 0.0174 | inactive
TP53 | 0.622 | 0.979 | 0.0878 | 0.107 | 0.0602 | inactive
BRSK1 | 0.901 | 1 | -0.0454 | -0.0218 | -0.0616 | inactive
EIF2AK3 | 0.734 | 0.987 | 0.062 | 0.0905 | 0.00402 | inactive
ERN1 | -0.227 | 0.914 | -0.0131 | 0.0128 | -0.00249 | inactive
NME6 | -0.18 | 0.917 | -0.0641 | -0.0231 | -0.163 | inactive
ETNK1 | 0.901 | 1 | -0.0259 | -0.00738 | -0.0886 | inactive
TESK1 | 0.141 | 0.942 | -0.0512 | 0.0358 | -0.0506 | inactive
STRADB | 0.717 | 0.986 | -0.01 | -0.015 | 0.0872 | inactive
PRKD3 | 0.574 | 0.975 | 0.0873 | 0.0126 | 0.0938 | inactive
PHKA2 | -0.533 | 0.89 | -0.0521 | 0.11 | 0.0254 | inactive
MAPK14 | -0.0718 | 0.926 | 0.014 | -0.0352 | 0.0294 | inactive
TNNI3K | 0.901 | 1 | -0.049 | -0.0881 | -0.051 | inactive
EIF2AK2 | 0.901 | 1 | -0.0468 | -0.0202 | -0.0648 | inactive
IDH2 | 0.901 | 1 | 0.123 | 0.0564 | 0.0833 | inactive
MAPK7 | -1.05 | 0.851 | 0.0369 | -0.105 | 0.00981 | inactive
RIOK1 | 0.259 | 0.951 | -0.0306 | 0.0901 | 0.00565 | inactive
PPP2R1A | 0.692 | 0.984 | -0.0942 | -0.0657 | -0.0384 | inactive
DGKI | 0.901 | 1 | 0.083 | -0.0296 | -0.00309 | inactive
CDK5R1 | -1 | 0.855 | -0.00169 | -0.0383 | -0.0486 | inactive
SCYL3 | -0.121 | 0.922 | -0.0553 | -0.143 | -0.0643 | inactive
LRRK2 | -0.652 | 0.881 | -0.00415 | -0.0482 | 0.00747 | inactive
TRIB2 | -0.234 | 0.913 | 0.0994 | 0.198 | 0.0366 | inactive
CSNK2A2 | -0.262 | 0.911 | -0.0593 | 0.0254 | -0.17 | inactive
MED12 | -0.643 | 0.882 | -0.0422 | -0.0248 | 0.0537 | inactive
LMTK1 | -1.24 | 0.837 | 0.0514 | -0.0371 | -0.114 | inactive
FGFR1 | 0.901 | 1 | -0.059 | 0.0912 | 0.0799 | inactive
MAPK3 | 0.406 | 0.962 | 0.174 | 0.0415 | 0.133 | inactive
PRKCD | -0.62 | 0.884 | 0.089 | 0.144 | 0.132 | inactive
FBXW7 | 0.626 | 0.979 | 0.0378 | -0.0707 | -0.077 | inactive
GATA3 | -2.49 | 0.741 | -0.187 | -0.0209 | -0.0583 | inactive
KRAS | -2.67 | 0.727 | 0.0684 | 0.143 | 0.119 | inactive
MPP1 | 0.506 | 0.97 | 0.0191 | 0.0613 | -0.116 | inactive
NADK | 0.901 | 1 | 0.0259 | 0.0672 | -0.0139 | inactive
NEK10 | 0.461 | 0.966 | 0.0236 | 0.0639 | 0.047 | inactive
SRPK1 | 0.554 | 0.974 | -0.0294 | 0.0389 | -0.0326 | inactive
BCOR | 0.0769 | 0.937 | -0.0149 | 0.0422 | -0.00394 | inactive
STK3 | 0.901 | 1 | -0.0407 | 0.000926 | -0.073 | inactive
PIP4K2C | -0.643 | 0.882 | -0.0686 | -0.0504 | -0.0704 | inactive
NUP62 | 0.901 | 1 | 0.0186 | 0.0915 | 0.17 | inactive
IKBKG | 0.873 | 0.998 | -0.0669 | 0.0861 | 0.0796 | inactive

6 entries from above, sorted by “viability z-score, no drug”, ascending.
Gene | viability z-score, no drug | viability vs control, no drug (fraction of control) | synergy with trametinib | synergy with BYL719 | synergy with cetuximab | Call
PHKA2 | -0.533 | 0.89 | -0.0521 | 0.11 | 0.0254 | inactive
MAPK14 | -0.0718 | 0.926 | 0.014 | -0.0352 | 0.0294 | inactive
TESK1 | 0.141 | 0.942 | -0.0512 | 0.0358 | -0.0506 | inactive
PRKD3 | 0.574 | 0.975 | 0.0873 | 0.0126 | 0.0938 | inactive
STRADB | 0.717 | 0.986 | -0.01 | -0.015 | 0.0872 | inactive
TNNI3K | 0.901 | 1 | -0.049 | -0.0881 | -0.051 | inactive
